Laboratory results reported in US12338456B2, “Method for increasing the specific production rate of eukaryotic cells” (Hoffmann-La Roche Inc., priority 2014, dated 2025).

Test system: Recombinant CHO-K1 cells producing a humanized monoclonal antibody
Assay: Phe→xTyr sequence variant quantification in produced antibody (tryptic peptide LC-MS), with penalty factor and critical ratio calculation
Format: cell-based, Chinese Hamster
Conditions: 0.1 mM, 0.3 mM and 0.4 mM supplementation at day 14

Compound	Measured maximum xTyr misincorporation (tracer peptide HC66-72)	Measured maximum xTyr misincorporation (tracer peptide HC129-140)
N[C@@H](Cc1cccc(O)c1)C(=O)O [meta-Tyr, meta-tyrosine]	1.5-2.4%	1.9-3.0%
NC(Cc1ccccc1O)C(=O)O (stereo not shown) [ortho-Tyr, ortho-tyrosine, reference compound]	1.6-2.0%	2.3-2.7%
